Laboratory results as given in patent US11155576B2 (BRANDEIS UNIVERSITY, priority 2014, dated 2021).

What was measured:
HeLa cells = experiment: SEM of freeze-dried HeLa cells; type: cell-based, human
[1] = general procedure: Fmoc solid-phase peptide synthesis; conditions: whole synthesis

Molecule	Cell surface appearance by SEM (HeLa cells; 280 μM)	Cell surface appearance by SEM (HeLa cells; 560 μM)	isolated yield [1] [%]
O=C(Cc1ccc2ccccc2c1)N[C@H](Cc1ccccc1)C(=O)N[C@H](Cc1ccccc1)C(=O)N[C@H](Cc1ccc(OP(=O)(O)O)cc1)C(=O)O [D-2a, Nap-D-Phe-D-Phe-D-Tyr(PO3H2)]	fiber-like structures attached closely to the cell surface	covered in porous structures (i.e., nanonets)	–
NBD-D-Nal-D-Phe-D-Phe-D-pTyr	–	–	60
